# PubChem BioAssay AID1259308, NCATS | 2017
# Purpose: 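Genes whose loss raises luciferase production in HEK293 cells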 (primary screen)
# Cell system: human HEK293 embryonic kidney cells stably expressing firefly luciferase (HEK-CMV-Luc2-Hygro)
# Reagents: single siRNA against human genes, 0.8 pmol siRNA per well
# Timing: 72 h
# Measurement: 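Reporter luminescence and viable-cell signal on separate replicate plates, given as percent of non-targeting control and median/MAD z-scores, plus per-cell luciferase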
# Reading the numbers: total luciferase, z-score and total luciferase, % of control: higher = more reporter protein produced
# Active means: 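Active when the median/MAD z-score for overall luciferase is greater than 3; a gene was taken forward for validation with new siRNAs if at least two of its three siRNAs passed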
# Calls: active = raised luciferase; inactive = no rise
# Shown is an unselected part of about 59,000 reagents tested. About 1,510 of them (2.6%) were called active. 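Calls use total luciferase alone and ignore viability, so some active siRNAs may act by altering cell number.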 Reagents against one gene are numbered here. Not all columns of the deposit are shown.
gene symbol,reagent,"total luciferase, z-score","total luciferase, % of control",Call
EXOC7 (exocyst complex component 7),1,0.492,91.7,inactive
EXOC7 (exocyst complex component 7),2,0.23,86.5,inactive
EXOC7 (exocyst complex component 7),3,1.98,121,inactive
"NOTUM (notum, palmitoleoyl-protein carboxylesterase)",1,1.12,104,inactive
"NOTUM (notum, palmitoleoyl-protein carboxylesterase)",2,0.295,87.7,inactive
"NOTUM (notum, palmitoleoyl-protein carboxylesterase)",3,0.0111,82.1,inactive
"RAB3C (RAB3C, member RAS oncogene family)",1,-0.607,69.8,inactive
"RAB3C (RAB3C, member RAS oncogene family)",2,1.37,109,inactive
"RAB3C (RAB3C, member RAS oncogene family)",3,2.94,140,inactive
PRDM11 (PR/SET domain 11),1,0.158,85,inactive
PRDM11 (PR/SET domain 11),2,-2.25,37.1,inactive
PRDM11 (PR/SET domain 11),3,0.446,90.8,inactive
MRTFA (myocardin related transcription factor A),1,5.54,192,active
MRTFA (myocardin related transcription factor A),2,1.21,106,inactive
MRTFA (myocardin related transcription factor A),3,0.318,88.2,inactive
CDKN3 (cyclin dependent kinase inhibitor 3),1,0.415,90.1,inactive
CDKN3 (cyclin dependent kinase inhibitor 3),2,0.739,96.6,inactive
CDKN3 (cyclin dependent kinase inhibitor 3),3,0.311,88.1,inactive
"ALG3 (ALG3 alpha-1,3- mannosyltransferase)",1,-0.379,74.4,inactive
"ALG3 (ALG3 alpha-1,3- mannosyltransferase)",2,1.72,116,inactive
"ALG3 (ALG3 alpha-1,3- mannosyltransferase)",3,8.17,244,active
SIPA1L1 (signal induced proliferation associated 1 like 1),1,-0.815,65.7,inactive
SIPA1L1 (signal induced proliferation associated 1 like 1),2,0.655,94.9,inactive
SIPA1L1 (signal induced proliferation associated 1 like 1),3,0.168,85.2,inactive

Sorted by “total luciferase, % of control” (low to high): 4 of the entries above
gene symbol,reagent,"total luciferase, z-score","total luciferase, % of control",Call
PRDM11 (PR/SET domain 11),2,-2.25,37.1,inactive
PRDM11 (PR/SET domain 11),1,0.158,85,inactive
"RAB3C (RAB3C, member RAS oncogene family)",2,1.37,109,inactive
"RAB3C (RAB3C, member RAS oncogene family)",3,2.94,140,inactive
